# Library compounds against nucleic acid targets

Targets (5′ to 3′):
SAM-II: SAM-II riboswitch RNA pseudoknot, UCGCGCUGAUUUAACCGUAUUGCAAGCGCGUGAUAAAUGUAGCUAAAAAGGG. About 21,000 compounds screened, about 200 hits.
PreQ1: PreQ1 riboswitch RNA pseudoknot, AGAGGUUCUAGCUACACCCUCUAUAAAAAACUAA. From B. subtilis. About 24,000 compounds screened, about 170 hits.
TPP: TPP riboswitch RNA three-way junction, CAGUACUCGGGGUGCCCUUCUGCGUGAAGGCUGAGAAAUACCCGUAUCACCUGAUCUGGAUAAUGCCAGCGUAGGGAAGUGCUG. About 24,000 compounds screened, about 160 hits.

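Compounds were printed on reactive glass slides in duplicate spots, a dye-labelled oligonucleotide was laid over them, and the fluorescence left after washing was read. For the PreQ1, TPP and SAM-II riboswitches the laboratory earlier reported (doi:10.1038/s41467-019-09493-3) 1 µM RNA, 2 h, and a rule that included a mean Z-score above 3 (spot signal-to-noise against the whole library), a score well above that on a control array, and duplicate spots agreeing (coefficient of variation under 100). The data file gives only the calls; its cut-offs may differ, and compounds hitting several targets are kept. The calls come from the array alone, and fixing a compound to the slide can hide its binding.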 Key: yes = hit, no = tested without a hit. Compounds were drawn at random from those tested, without regard to their results. A dash means that no call is listed here.

Compound,SAM-II,PreQ1,TPP
O=C(c1ccccc1C1CCNC1)N1CCc2[nH]c3ccccc3c2C1 (stereo not shown),no,no,no
Cc1c(C(=O)c2ccccc2)c2ccccc2n1C,no,no,no
COc1ccccc1C(O)CNc1nccc(-c2ccc(C)nc2C)n1 (stereo not shown),no,no,no
COc1ccccc1CNc1ncc(-c2cccc(Br)c2)n1C,no,no,no
CC(C)c1cc(Nc2ccc(Cl)cc2)n2nc(-c3cccnc3)nc2n1,-,no,no
COc1ccccc1C(O)Cc1nc2ccccc2n1C (stereo not shown),no,no,no
COc1ccc(OC)c(-c2nnc3ccc(-c4ccc(OC)c(O[C@@H]5CCOC5)c4)nn23)c1,no,no,no
COc1cccc([C@H]2CN(C(=O)c3cc(C)oc3C)C[C@@H]2N)c1,no,no,no
C=CCC1(CO)CCCN(C(=O)COCc2ccccc2)C1 (stereo not shown),no,no,no
COC(=O)C1=C(N)Oc2c(oc(CO)cc2=O)C1c1ccccc1F (stereo not shown),no,no,no
Cc1ccc(C2(CN(C)Cc3nc4cc(C)ccc4[nH]3)CCNCC2)nc1,no,no,no
COc1ccc(C(CC(=O)c2ccc(C)cc2)Nc2ccc(I)cc2)cc1OC (stereo not shown),no,no,no
C#CCNCC(=O)N(CC=C)CC=C,no,no,no
COc1cccc(Nc2ccnc3ccc(F)cc23)c1,no,no,no
COc1ccc(S(=O)(=O)NCCNc2ncnc3c2CCNC3)cc1,no,no,no
COc1ccc(-c2nc3nc(C)cc(NC(C)C)n3n2)cc1,-,no,no
CNC(=O)[C@@H]1C[C@@H](N)CN1C(=O)c1ccc(OC)c(COC)c1,no,no,no
Nc1nonc1-c1noc(-c2ccccc2F)n1,no,no,no
CC1CN(C2CCCCC2)c2nc3c(c(=O)n(CCCO)c(=O)n3C)n2C1 (stereo not shown),-,no,no
COc1cc(C)nc(Nc2nc(C)c3cc(C)ccc3n2)n1,no,no,no
Cc1cccc(C)c1OCC(O)Cn1cnc2ccccc21 (stereo not shown),no,no,no
Cc1nc(N)ncc1C(=O)N1CCCC1c1ccc(CN(C)C)cc1 (stereo not shown),no,no,no
O=c1c2cc3c(=O)n(CCc4ccccc4)ccc3nc2ccn1CCO,no,no,no
Nc1cccc(S(=O)(=O)N2CCC(C(=O)O)CC2)c1,no,no,no
Cc1ccc2cc(-c3noc(C)n3)c(NCc3ccc(F)cc3)nc2c1,-,no,no
CC(=O)c1cccc(Nc2cc(-c3ccc(C)cc3)nc(C)n2)c1,-,no,no
Cc1cccc(C(=O)N2C[C@@H](N)C[C@H]2C(=O)O)n1,no,no,no
CCCCN1CCNC1=S,no,no,no
O=c1cc(-c2ccccc2)[nH]c2cc(-c3ccco3)nn12,no,no,no
c1ccc2c(CCNCc3ccsc3)c[nH]c2c1,no,no,no
Cc1nc[nH]c1CN1CCC(Cc2nnc(CO)n2-c2ccccc2)CC1,no,no,no
CCOC(=O)c1ccc(NC(=O)c2sc(N)c(C(=O)OCC)c2C)cc1,no,no,no
COc1cccc(Cl)c1-c1cc(CN)ccc1F,no,yes,yes
C=CCOc1ccc(C2C(C#N)=C(N)Oc3cc4c(cc32)OCO4)cc1OCC (stereo not shown),no,no,no
Cc1cc(C)cc(Nc2c(-c3ccc(O)cc3)nc3ncccn23)c1,no,no,no
COc1cccc(CN2CCCC(O)(CNCCn3cccc3)C2=O)c1 (stereo not shown),no,no,no
CCOc1ccc(C(C)(C)NC(=O)[C@@H]2C[C@H](N)CN2C)cc1,no,no,no
Cn1ncc2c(NCc3ccccc3)ncnc21,no,no,no
OCCn1nc(-c2ccncc2)nc1-c1ccc(CC2CCCNC2)cc1 (stereo not shown),no,no,no
CCOC(=O)N1CCN(c2c(NCCN3CCN(Cc4ccccc4)CC3)c(=O)c2=O)CC1,-,no,no
C[C@@H]1CN(C[C@@H]2CN(C(=O)Cn3cnnn3)C[C@@H]2CO)C[C@H](C)O1,no,no,no
Cc1c(C#N)c(N)n(CCCn2ccnc2)c1C,no,no,no
N#CC1=C(N)Oc2c(c(=O)oc3ccccc23)C1c1cccc(Br)c1 (stereo not shown),no,no,no
CCOc1ccccc1-c1nc(-c2nonc2N)no1,no,no,no
NC(=O)C1=C(NCCN2CCOCC2)c2ccccc2S1(=O)=O,-,no,no
COCCNS(=O)(=O)c1cc(C(=O)O)cc(-n2cc3c(n2)CCNC3)c1,no,no,no
Cc1cc2c(cc1C)NC(c1ccsc1)C1=C(CC(C)(C)CC1=O)N2 (stereo not shown),no,no,no
Cc1cccc(Nc2nc3ccccc3c3nncn23)c1C,no,no,no
N#Cc1c(-c2ccc(OCCn3ccnc3)cc2)cc(-c2ccc[nH]2)nc1N,no,no,no
Cc1cc(N2CCn3c(nc4ccccc43)C2)ccc1N,-,no,no
CCc1nc(N)nc(N)c1-c1ccc(Cl)cc1,no,no,no
Cc1cccc(CNCC2(O)CCCN(CCCc3ccccc3)C2=O)n1 (stereo not shown),no,no,no
CC(NC(=O)c1nn(-c2ccc(Cl)cc2)nc1CO)c1ccccc1 (stereo not shown),-,no,no
CCOC(=O)N1CCN(c2ccc(N)cc2Cl)CC1,no,no,no
O=C(c1cccn1C1CC1)N1C[C@H](CO)C[C@H](CN2CCCC2)C1,no,no,no

From ROBIN, a set of small-molecule microarray screens (doi:10.1002/anie.202211358).